In PubChem BioAssay AID720504 (National Center for Advancing Translational Sciences (NCATS), 2013):
Among all 360,000 compounds or so, about 10,000 (2.8%) were called active. The shares of active, inactive and inconclusive entries below differ from those in the screen. The call rests on the fitted dose curve; in most records, active means well fitted inhibition curve with a large enough effect; inconclusive means small, poorly fitted or top-dose-only effect; inactive means flat fitted curve, though single readings scatter. Where the call is inconclusive, the potency comes from a doubtful curve fit.

The chains behind the UniProt entries cited, without tags or fusion partners.
UniProt P53350, whole entry, looked up: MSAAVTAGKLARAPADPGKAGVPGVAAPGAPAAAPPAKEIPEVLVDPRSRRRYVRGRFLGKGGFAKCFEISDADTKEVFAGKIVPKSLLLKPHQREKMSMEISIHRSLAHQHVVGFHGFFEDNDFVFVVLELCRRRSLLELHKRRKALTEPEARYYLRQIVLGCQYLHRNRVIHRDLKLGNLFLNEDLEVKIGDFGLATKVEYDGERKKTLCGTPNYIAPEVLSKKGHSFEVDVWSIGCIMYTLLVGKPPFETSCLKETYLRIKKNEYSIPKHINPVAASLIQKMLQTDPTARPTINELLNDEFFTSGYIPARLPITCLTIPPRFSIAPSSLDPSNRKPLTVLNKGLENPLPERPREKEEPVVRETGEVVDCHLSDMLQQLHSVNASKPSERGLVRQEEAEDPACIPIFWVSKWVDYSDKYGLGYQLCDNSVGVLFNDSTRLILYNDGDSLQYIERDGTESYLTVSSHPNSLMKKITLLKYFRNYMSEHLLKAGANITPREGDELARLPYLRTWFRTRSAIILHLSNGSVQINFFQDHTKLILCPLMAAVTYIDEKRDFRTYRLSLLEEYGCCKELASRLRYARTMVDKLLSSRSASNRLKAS

Target: Serine/threonine-protein kinase PLK1 (Homo sapiens) (UniProt P53350)
Test: qHTS for Inhibitors of PLK1-PDB (polo-like kinase 1 - polo-box domain): Primary Screen; further: nearly all actives have a fitted effect of over 65% in size; on max response, negative = inhibition: series mostly up to about 57 µM
Details: Plk1 PBD binding of FITC phosphopeptide, fluorescence polarization
On the % scale 0 is the no-effect control and ±100 the full control effect; potency means the concentration at half of the fitted maximal effect.

Row | SMILES | max response, negative = inhibition | Potency
1 | CCC(=O)N1CCCC(C(=O)NS(=O)(=O)c2cc(C)c(Cl)cc2C)CC1 (stereo not given) | inactive: -5.53% | –
2 | CCOC(=O)N1C(=O)c2cc(OC)ccc2S1(=O)=O | – | inconclusive: 33.6 µM [inhibitor, partial curve]
3 | CN(CC(=O)Nc1ccccc1C(F)(F)F)C(=O)c1ccccc1Sc1ccccc1C#N | inactive: -9.59% | –
4 | Cc1ccc(C(=O)CSc2ncnc3sc4c(c23)CCC(C)C4)cc1 (stereo not given) | inconclusive: -30.7% [inhibitor] | –
5 | COCCSc1ccccc1C(=O)Nc1ccc2c(c1)OCCO2 | inactive: -8.98% | –
6 | CCn1c(CNC(=O)c2ccccc2F)nnc1SCC(=O)NC1CCCCC1 | – | inconclusive: 11.9 µM [inhibitor, partial curve]
7 | CCOc1ccc(C(=O)NCC(=O)OCc2cc(C(C)=O)ccc2OC)cc1 | – | inconclusive: 33.6 µM [inhibitor, partial curve]
8 | c1ccc(-n2c3ccccc3c3ccccc32)cc1 | inactive: -2.51% | –
9 | O=C(O)c1ccccc1NS(=O)(=O)c1ccc(NNC(=S)Nc2ccc(OC(F)F)cc2)c([N+](=O)[O-])c1 | – | active: 10.6 µM
10 | CCOC(=O)c1[nH]c(=S)n(-c2ccccc2)c1C(=O)OCC | inactive: -4.9% | –
11 | O=C(CSc1nnc(SCc2ccccc2)s1)N/N=C/C=C/c1ccco1 | – | inconclusive: 23.8 µM [inhibitor, partial curve]
12 | CC(C)CCSc1nc(N2CCOCC2)c2c(c1C#N)CC(C)(C)OC2 | inactive: -1.26% | –
13 | COc1ccc(OC)c(CN2CCC(C(=O)N(C)CCc3ccc(OC)c(OC)c3)CC2)c1 | inactive: -0.939% | –
14 | COc1cccc(CCNC(=O)CCc2nnc(Cc3cc(OC)ccc3OC)o2)c1 | inactive: 1.18% | –
15 | CC1=C(C(N)=O)C(c2cccs2)n2ncnc2N1 (stereo not given) | inactive: -5.02% | –
16 | O=C1c2ccccc2C(=O)C1c1ccncc1 | – | inconclusive: 37.7 µM [inhibitor, single point]
17 | NC(=O)c1c(NC(=O)CCCC(=O)O)sc2c1CCCCCC2 | – | active: 26.7 µM
18 | O=C(Cn1cnc2scc(-c3cccc([N+](=O)[O-])c3)c2c1=O)NCc1ccco1 | – | inconclusive: 23.8 µM [inhibitor, single point]
19 | S=c1[nH]nc(-c2cc(-c3ccccc3)n[nH]2)n1/N=C/c1ccc(Cl)c(Cl)c1 | – | inconclusive: 18.9 µM [inhibitor, partial curve]
20 | Cc1c(Cl)cccc1-n1nnnc1-c1cccs1 | inactive: -2.26% | –
21 | O=C(Nc1nc2c(Cl)cccc2s1)c1ccc([N+](=O)[O-])o1 | – | inconclusive: 37.7 µM [inhibitor, single point]
22 | c1cc2c(cc1-c1csc(NNC3=NCCCCC3)n1)OCCO2 | – | active: 18.9 µM
23 | CC1=NN(c2ccc(S(=O)(=O)O)cc2C)C(=O)C1 | – | inconclusive: 26.7 µM [inhibitor, single point]
24 | COc1ccc(NC(=O)c2cc([N+](=O)[O-])ccc2N2CCN(C)CC2)cc1 | – | inconclusive: 15 µM [inhibitor, partial curve]
25 | CC1=C(C(=O)Nc2ccccc2)C2(CCCCC2)C(C#N)=C(S)N1 | – | inconclusive: 37.7 µM [inhibitor, single point]

No new results follow: 20 of the compounds above.
Row | SMILES | max response, negative = inhibition | Potency
1 | CCC(=O)N1CCCC(C(=O)NS(=O)(=O)c2cc(C)c(Cl)cc2C)CC1 (stereo not given) | inactive: -5.53% | –
2 | CCOC(=O)N1C(=O)c2cc(OC)ccc2S1(=O)=O | – | inconclusive: 33.6 µM [inhibitor, partial curve]
3 | CN(CC(=O)Nc1ccccc1C(F)(F)F)C(=O)c1ccccc1Sc1ccccc1C#N | inactive: -9.59% | –
4 | Cc1ccc(C(=O)CSc2ncnc3sc4c(c23)CCC(C)C4)cc1 (stereo not given) | inconclusive: -30.7% [inhibitor] | –
5 | COCCSc1ccccc1C(=O)Nc1ccc2c(c1)OCCO2 | inactive: -8.98% | –
6 | CCn1c(CNC(=O)c2ccccc2F)nnc1SCC(=O)NC1CCCCC1 | – | inconclusive: 11.9 µM [inhibitor, partial curve]
7 | CCOc1ccc(C(=O)NCC(=O)OCc2cc(C(C)=O)ccc2OC)cc1 | – | inconclusive: 33.6 µM [inhibitor, partial curve]
8 | c1ccc(-n2c3ccccc3c3ccccc32)cc1 | inactive: -2.51% | –
9 | O=C(O)c1ccccc1NS(=O)(=O)c1ccc(NNC(=S)Nc2ccc(OC(F)F)cc2)c([N+](=O)[O-])c1 | – | active: 10.6 µM
10 | CCOC(=O)c1[nH]c(=S)n(-c2ccccc2)c1C(=O)OCC | inactive: -4.9% | –
11 | O=C(CSc1nnc(SCc2ccccc2)s1)N/N=C/C=C/c1ccco1 | – | inconclusive: 23.8 µM [inhibitor, partial curve]
12 | CC(C)CCSc1nc(N2CCOCC2)c2c(c1C#N)CC(C)(C)OC2 | inactive: -1.26% | –
13 | COc1ccc(OC)c(CN2CCC(C(=O)N(C)CCc3ccc(OC)c(OC)c3)CC2)c1 | inactive: -0.939% | –
14 | COc1cccc(CCNC(=O)CCc2nnc(Cc3cc(OC)ccc3OC)o2)c1 | inactive: 1.18% | –
15 | CC1=C(C(N)=O)C(c2cccs2)n2ncnc2N1 (stereo not given) | inactive: -5.02% | –
16 | O=C1c2ccccc2C(=O)C1c1ccncc1 | – | inconclusive: 37.7 µM [inhibitor, single point]
17 | NC(=O)c1c(NC(=O)CCCC(=O)O)sc2c1CCCCCC2 | – | active: 26.7 µM
18 | O=C(Cn1cnc2scc(-c3cccc([N+](=O)[O-])c3)c2c1=O)NCc1ccco1 | – | inconclusive: 23.8 µM [inhibitor, single point]
19 | S=c1[nH]nc(-c2cc(-c3ccccc3)n[nH]2)n1/N=C/c1ccc(Cl)c(Cl)c1 | – | inconclusive: 18.9 µM [inhibitor, partial curve]
20 | Cc1c(Cl)cccc1-n1nnnc1-c1cccs1 | inactive: -2.26% | –

Additional compounds

Row | SMILES | max response, negative = inhibition | Potency
26 | O=C1OC(c2ccc3ccccc3c2O)(c2ccc3ccccc3c2O)c2ccccc21 | – | active: 4.74 µM
27 | CCC(=O)c1ccc(OCc2ccc(C#N)cc2)cc1 | inactive: -13% | –
28 | COc1ccc(NC(=O)Cn2ncn3c(cc4ccccc43)c2=O)c(OC)c1OC | inactive: -11.6% | –
29 | CN1CCN(CCCC(=O)c2ccc(C3CCCC3)cc2)CC1 | – | inconclusive: 37.7 µM [inhibitor, partial curve, poor fit]
30 | CC(=O)N1CCOc2ccc(S(=O)(=O)NCCc3ccc(Cl)cc3)cc21 | inactive: -20.5% | –
31 | Cn1ncc(C#N)c1NC(=O)C1CC(c2ccccc2Cl)=NO1 (stereo not given) | – | active: 29.9 µM
32 | O=C(CCCCCN1C(=O)c2cccc3cccc(c23)C1=O)NC1CCS(=O)(=O)C1 (stereo not given) | – | inconclusive: 33.6 µM [inhibitor, partial curve, poor fit]
33 | COc1ccccc1NC(=O)C(C)OC(=O)C1CC(=O)N(c2ccc3c(c2)OCCO3)C1 (stereo not given) | – | inconclusive: 37.7 µM [inhibitor, single point]
34 | COC(=O)c1cc2c(=O)c3ccccc3oc2nc1/C=C/N(C)C | inactive: 24% | –
35 | CCOc1ccc(NC(=O)/C(C#N)=C/c2cn(CC(=O)O)c3ccccc23)cc1 | – | inconclusive: 75.2 µM [inhibitor, single point]
36 | CCOC(=O)c1sc(N2C(=O)C(O)=C(C(=O)c3ccco3)C2c2ccc(C)o2)nc1C (stereo not given) | – | inconclusive: 29.9 µM [inhibitor, partial curve]
37 | NC(=O)c1ccc(NC(=O)CSC(=O)c2ccccc2)cc1 | – | active: 26.7 µM
38 | Cc1ccc(N(C)C(=O)N2CCN(S(=O)(=O)c3ccc(C)c(C)c3)CC2)cc1 | inactive: -0.0066% | –
39 | CCCCN(C)C(=O)C1CCCN(S(=O)(=O)c2ccc3c(c2)CC(C)N3C(=O)C2CC2)C1 (stereo not given) | inactive: -0.298% | –
40 | O=c1[nH]nc(N2CCOCC2)c(=O)[nH]1 | – | active: 4.74 µM
41 | CC(=O)c1sc(N/N=C2\CC3CCC2(C)C3(C)C)nc1C (stereo not given) | – | inconclusive: 26.7 µM [inhibitor, partial curve]
42 | Nc1ccc(S(=O)(=O)Nc2nc3ccccc3o2)cc1 | – | inconclusive: 26.7 µM [inhibitor, partial curve]
43 | Cc1cc(-c2n[nH]c(=S)n2/N=C/c2ccc(Cl)c([N+](=O)[O-])c2)n[nH]1 | – | inconclusive: 15 µM [inhibitor, partial curve]
44 | Cc1cc(C)nc(/N=C2\NC(=O)CC(C(=O)O)N2c2ccc(Oc3ccccc3)cc2)n1 (stereo not given) | inactive: -7.28% | –
45 | CCOC(=S)SCC(=O)Nc1nc(C)c(C)s1 | – | inconclusive: 16.8 µM [inhibitor, partial curve]
46 | CCN=C1NN=C(c2cc(C)n(CCc3ccccc3)c2C)CS1 | inactive: -20.5% | –
47 | O=C(CCn1cnc(-c2ccccc2)c1-c1ccccc1)N/N=C/c1ccc(O)cc1 | – | inconclusive: 5.97 µM [inhibitor, full curve]
48 | O=C(O)CCc1ccc(-c2cccs2)n1CC1CCCO1 (stereo not given) | inactive: -12.2% | –
49 | Cc1[nH]n(-c2cccc3ccccc23)c(=O)c1/C=N/c1sc2c(c1C#N)CCC2 | – | inconclusive: 29.9 µM [inhibitor, partial curve]
50 | CCN(CC)S(=O)(=O)c1ccc(OC)c(NC(=S)Nc2ccc(C)c(C)c2)c1 | – | inconclusive: 37.7 µM [inhibitor, single point]

Row | SMILES | max response, negative = inhibition | Potency
51 | O=C(Nc1ccccc1)N1CC=C(c2ccc(F)cc2)CC1 | inactive: -12.4% | –
52 | Cc1ccc(CSc2nnc(-c3ccncc3)n2N)cc1 | inactive: 4.01% | –
53 | Cc1ccc(S(=O)(=O)CCC(=O)c2ccc(O)cc2O)cc1 | – | inconclusive: 11.9 µM [inhibitor, partial curve]
54 | CN(Cc1ccc(F)cc1)C(=O)CN1CCN(S(=O)(=O)c2ccc3c(c2)OCCCO3)CC1 | inactive: 7.96% | –
55 | COCCN(C(=O)CSc1nnc(C)n1Cc1ccccc1)c1c(N)n(CC(C)C)c(=O)[nH]c1=O | – | inconclusive: 18.9 µM [inhibitor, partial curve]
56 | CCC(=O)c1ccc(OCCn2cnc3ccccc32)cc1 | – | inconclusive: 23.8 µM [inhibitor, single point]
57 | COCCn1c(SC2CCCCC2=O)nnc1-c1ccncc1 (stereo not given) | – | inconclusive: 21.2 µM [inhibitor, single point]
58 | O=C(COC(=O)c1ccc(O)cc1)NC1CCCC1 | inactive: -10.8% | –
59 | CCN(CC)C(=O)CSc1nnc2nnc3cc(OC)ccc3n12 | – | active: 23.8 µM
60 | CN1CCN(C(=O)c2sc(=S)n(-c3ccccc3)c2N)CC1 | – | active: 1.5 µM
61 | Cc1cc(C(=O)COC(=O)c2ccc(NC(=O)CC#N)cc2)c(C)n1C1CC1 | inactive: 1.96% | –
62 | O=C(O)c1cccc(Nc2nc(-c3ccc([N+](=O)[O-])cc3)nc3ccccc23)c1 | – | inconclusive: 26.7 µM [inhibitor, single point]
63 | Cc1ccc(-c2nc(N)sc2-c2ccccc2)cc1C | inactive: -2.62% | –
64 | N#CC(Nc1ccccc1)c1ccccc1OCc1ccccc1 (stereo not given) | inactive: -4.4% | –
65 | CCCCCCn1cc(C(=O)O)c(=O)c2ccccc21 | inactive: -0.7% | –
66 | COc1cc(NS(=O)(=O)c2ccc(C)cc2)c2c(c1N)C(=O)c1ccccc1C2=O | inactive: -10.3% | –
67 | COc1cc(/C=C2/C(=N)N3C(=NC2=O)SN=C3S(C)(=O)=O)ccc1OS(=O)(=O)c1ccc(C)cc1 | – | active: 26.7 µM
68 | O=C(NCc1n[nH]c(=S)n1-c1ccc(Cl)c(Cl)c1)c1cccs1 | inactive: -23.6% | –
69 | CCOC(=O)c1c(-c2ccc(F)cc2)csc1NC(=O)C1CC=CCC1C(=O)O (stereo not given) | – | active: 23.8 µM
70 | CCn1cc(C=C2C(=O)c3ccccc3C2=O)c2ccccc21 | – | inconclusive: 5.97 µM [inhibitor, full curve]
71 | Cc1[nH]n(C(N)=S)c(=O)c1N=Nc1ccc(Br)cc1 | inconclusive: -36.6% [inhibitor] | –
72 | CCC(C)c1nc2ccsc2c(N2CCOC2=O)c1-c1ccccc1 (stereo not given) | inactive: 3.96% | –
73 | CC(CC(=O)Nc1nnc(CC(C)(C)C)s1)c1ccccc1 (stereo not given) | – | inconclusive: 26.7 µM [inhibitor, partial curve]
74 | O=C(COC(=O)CSc1ccc([N+](=O)[O-])cc1)NCC1CCCO1 (stereo not given) | – | inconclusive: 18.9 µM [inhibitor, partial curve]
75 | Cc1ccc(NC(=S)NNC(=O)CCn2cc(C)cn2)cc1 | inactive: -0.194% | –
